Consider one molecule from paper doi:10.1101/2023.03.06.531441.

The chains behind the UniProt entries cited, without tags or fusion partners.
UniProt P30153: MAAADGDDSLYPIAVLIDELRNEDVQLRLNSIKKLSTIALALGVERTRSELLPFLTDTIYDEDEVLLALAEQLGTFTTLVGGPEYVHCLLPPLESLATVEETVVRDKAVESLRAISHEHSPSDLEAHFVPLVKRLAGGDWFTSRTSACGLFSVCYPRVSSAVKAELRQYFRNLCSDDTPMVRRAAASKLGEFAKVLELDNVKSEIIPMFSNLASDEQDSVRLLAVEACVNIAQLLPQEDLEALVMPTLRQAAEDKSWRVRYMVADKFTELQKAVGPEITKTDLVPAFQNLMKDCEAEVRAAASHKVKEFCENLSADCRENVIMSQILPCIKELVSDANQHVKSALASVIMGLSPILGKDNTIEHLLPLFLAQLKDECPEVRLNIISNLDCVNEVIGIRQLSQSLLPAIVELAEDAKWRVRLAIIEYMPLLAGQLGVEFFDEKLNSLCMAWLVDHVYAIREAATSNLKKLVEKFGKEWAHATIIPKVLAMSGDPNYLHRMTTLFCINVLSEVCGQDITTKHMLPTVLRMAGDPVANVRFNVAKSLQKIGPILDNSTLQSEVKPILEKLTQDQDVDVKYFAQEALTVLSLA

Results are given in words; binding and its absence hold for the method and conditions named. Binding seen in cells or lysates may run through a third protein. Some binding calls cover weakened binding; strength is not graded here. Where a sequence is shown, tags or fusion partners need not be part of it.

In this test the target is PPP2R1A wild type, 3xFlag-tagged (human) (UniProt P30153). The test is described as follows: co-IP; 3xFlag-PPP2R1A or its mutant (bait) and 3xMyc-PPP2R3A (prey) co-transfected in HEK 293T; RIPA lysate (50 mM Tris pH 7.5, 150 mM NaCl, 5 mM EDTA, 1.0% NP-40, 0.25% sodium deoxycholate); anti-FLAG M2 affinity gel overnight at 4°C; blot with anti-FLAG and anti-MYC.

B1: PPP2R3A, 3xMyc-tagged (protein, UniProt Q06190 1-1150)
chain: MAATYRLVVSTVNHYSSVVIDRRFEQAIHYCTGTCHTFTHGIDCIVVHHSVCADLLHIPVSQFKDADLNSMFLPHENGLSSAEGDYPQQAFTGIPRVKRGSTFQNTYNLKDIAGEAISFASGKIKEFSFEKLKNSNHAAYRKGRKVKSDSFNRRSVDLDLLCGHYNNDGNAPSFGLLRSSSVEEKPLSHRNSLDTNLTSMFLQNFSEEDLVTQILEKHKIDNFSSGTDIKMCLDILLKCSEDLKKCTDIIKQCIKKKSGSSISEGSGNDTISSSETVYMNVMTRLASYLKKLPFEFMQSGNNEALDLTELISNMPSLQLTPFSPVFGTEQPPKYEDVVQLSASDSGRFQTIELQNDKPNSRKMDTVQSIPNNSTNSLYNLEVNDPRTLKAVQVQSQSLTMNPLENVSSDDLMETLYIEEESDGKKALDKGQKTENGPSHELLKVNEHRAEFPEHATHLKKCPTPMQNEIGKIFEKSFVNLPKEDCKSKVSKFEEGDQRDFTNSSSQEEIDKLLMDLESFSQKMETSLREPLAKGKNSNFLNSHSQLTGQTLVDLEPKSKVSSPIEKVSPSCLTRIIETNGHKIEEEDRALLLRILESIEDFAQELVECKSSRGSLSQEKEMMQILQETLTTSSQANLSVCRSPVGDKAKDTTSAVLIQQTPEVIKIQNKPEKKPGTPLPPPATSPSSPRPLSPVPHVNNVVNAPLSINIPRFYFPEGLPDTCSNHEQTLSRIETAFMDIEEQKADIYEMGKIAKVCGCPLYWKAPMFRAAGGEKTGFVTAQSFIAMWRKLLNNHHDDASKFICLLAKPNCSSLEQEDFIPLLQDVVDTHPGLTFLKDAPEFHSRYITTVIQRIFYTVNRSWSGKITSTEIRKSNFLQTLALLEEEEDINQITDYFSYEHFYVIYCKFWELDTDHDLYISQADLSRYNDQASSSRIIERIFSGAVTRGKTIQKEGRMSYADFVWFLISEEDKRNPTSIEYWFRCMDVDGDGVLSMYELEYFYEEQCERMEAMGIEPLPFHDLLCQMLDLVKPAVDGKITLRDLKRCRMAHIFYDTFFNLEKYLDHEQRDPFAVQKDVENDGPEPSDWDRFAAEEYETLVAEESAQAQFQEGFEDYETDEPASPSEFGNKSNKILSASLPEKCGKLQSVDEE
On to B1, for which the binding entry was “binds”.
